Laboratory results: PubChem BioAssay AID1159578 (Peter MacCallum Cancer Centre, 2015)

Assay: 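siRNA pools altering how lymphatic endothelial cells close a scratch wound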 (primary screen)
Cell system: human lymphatic endothelial cells
Reagent: siRNA pool against human genes, 40 nM
Timing: 48 h after transfection
Detection: 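High-content imaging of dye-stained cells in a scratch assay measures filled wound area and nuclei per well; duplicate means given as ratio to mock and robust z-score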
Scale: migration robust z-score: higher = faster migration into the scratch; migration relative to mock: higher = more scratch area covered than mock; nuclei per well: higher = more cells in the well
Call rule: 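Pools averaging fewer than 3300 nuclei are never called; remaining pools count as changed when migration robust z lies outside -2 to 2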
Meaning of the calls: active = migration changed; inactive = no migration change, or too few cells
In all, the deposit lists about 18,000 reagents; below is a random part of them. About 1,030 of them (5.7%) count as active. 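Inactive calls also include pools with fewer than 3300 nuclei, whose migration was not assessed.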 The raw values are shown without normalisation.

The first 7 records, ahead of the listing:
| gene knocked down | migration robust z-score | migration class with cell-count check | migration relative to mock | nuclei per well, duplicate mean | Call |
| --- | --- | --- | --- | --- | --- |
| VPS35L | -0.5 | migration z between -2 and 2; enough cells | 0.76 | 5826 | inactive |
| TNFRSF4 | -0.5 | migration z between -2 and 2; enough cells | 0.71 | 6606 | inactive |
| ADAD2 | 0.02 | migration z between -2 and 2; enough cells | 0.88 | 5464 | inactive |
| RNF40 | -1.24 | migration z between -2 and 2; enough cells | 0.56 | 4116 | inactive |
| GABRA5 | -1.61 | migration z between -2 and 2; enough cells | 0.5 | 4272 | inactive |
| PHF13 | 0.31 | migration z between -2 and 2; enough cells | 0.86 | 4782 | inactive |
| C19orf12 | 0.05 | migration z between -2 and 2; enough cells | 0.9 | 5254 | inactive |

The listing, repeating the preview:
| gene knocked down | migration robust z-score | migration class with cell-count check | migration relative to mock | nuclei per well, duplicate mean | Call |
| --- | --- | --- | --- | --- | --- |
| VPS35L | -0.5 | migration z between -2 and 2; enough cells | 0.76 | 5826 | inactive |
| TNFRSF4 | -0.5 | migration z between -2 and 2; enough cells | 0.71 | 6606 | inactive |
| ADAD2 | 0.02 | migration z between -2 and 2; enough cells | 0.88 | 5464 | inactive |
| RNF40 | -1.24 | migration z between -2 and 2; enough cells | 0.56 | 4116 | inactive |
| GABRA5 | -1.61 | migration z between -2 and 2; enough cells | 0.5 | 4272 | inactive |
| PHF13 | 0.31 | migration z between -2 and 2; enough cells | 0.86 | 4782 | inactive |
| C19orf12 | 0.05 | migration z between -2 and 2; enough cells | 0.9 | 5254 | inactive |
| LPIN3 | 0.36 | migration z between -2 and 2; enough cells | 0.98 | 5502 | inactive |
| GPNMB | -1.31 | migration z between -2 and 2; enough cells | 0.54 | 5266 | inactive |
| C21orf58 | 0.16 | migration z between -2 and 2; enough cells | 0.92 | 5242 | inactive |
| DEFB4A | -0.42 | migration z between -2 and 2; enough cells | 0.78 | 5524 | inactive |
| CD38 | -0.54 | migration z between -2 and 2; enough cells | 0.7 | 5360 | inactive |
| FAM110B | 0.61 | migration z between -2 and 2; enough cells | 1.04 | 8852 | inactive |
| TMEM52 | 0.84 | migration z between -2 and 2; enough cells | 1.1 | 5764 | inactive |
| ITLN2 | -1.02 | migration z between -2 and 2; enough cells | 0.62 | 5832 | inactive |
| TYMS | 0.65 | migration z between -2 and 2; enough cells | 0.93 | 5738 | inactive |
| KRT222 | -0.69 | migration z between -2 and 2; enough cells | 0.7 | 5316 | inactive |
| DCAF16 | -0.87 | migration z between -2 and 2; enough cells | 0.66 | 6642 | inactive |
| OBP2B | 0.16 | migration z between -2 and 2; enough cells | 0.84 | 5446 | inactive |
| NYX | -1.36 | migration z between -2 and 2; enough cells | 0.54 | 3960 | inactive |
| HPS5 | 1.28 | migration z between -2 and 2; enough cells | 1.22 | 6342 | inactive |
| SLC71A2 | -1.54 | migration z between -2 and 2; enough cells | 0.49 | 7326 | inactive |
| SPANXA2 | -0.37 | migration z between -2 and 2; enough cells | 0.78 | 4100 | inactive |
| SMCO4 | 0.42 | migration z between -2 and 2; enough cells | 1 | 6542 | inactive |
| MPRIP | -0.03 | migration z between -2 and 2; enough cells | 0.88 | 6048 | inactive |
| CEP57L1 | -0.26 | migration z between -2 and 2; enough cells | 0.82 | 6226 | inactive |
| HUNK | -1.32 | migration z between -2 and 2; enough cells | 0.55 | 4140 | inactive |
| METTL18 | -0.72 | migration z between -2 and 2; enough cells | 0.7 | 5601 | inactive |
| CFHR3 | 0.57 | migration z between -2 and 2; enough cells | 1.04 | 6969 | inactive |
| SLK | -2.44 | under 3300 nuclei; migration not judged | 0.34 | 2464 | inactive |
| PLEKHH3 | -1.35 | migration z between -2 and 2; enough cells | 0.54 | 5401 | inactive |
| H2AC19 | 0.46 | migration z between -2 and 2; enough cells | 1.01 | 5376 | inactive |
| STAB2 | 0.01 | migration z between -2 and 2; enough cells | 0.88 | 5010 | inactive |
| ATP8B2 | -1.5 | migration z between -2 and 2; enough cells | 0.52 | 4270 | inactive |
| H2BC12 | 0.16 | migration z between -2 and 2; enough cells | 0.92 | 6398 | inactive |
| APOC3 | 0.32 | migration z between -2 and 2; enough cells | 0.86 | 6826 | inactive |
| SLC2A14 | 0.02 | migration z between -2 and 2; enough cells | 0.89 | 5315 | inactive |
| LRRIQ4 | 1.21 | migration z between -2 and 2; enough cells | 1.2 | 6276 | inactive |
| HNRNPUL2 | 1.83 | migration z between -2 and 2; enough cells | 1.36 | 7296 | inactive |
| ERG28 | 0.57 | migration z between -2 and 2; enough cells | 1.04 | 5628 | inactive |
| TPSAB1 | 0.47 | migration z between -2 and 2; enough cells | 1 | 6948 | inactive |
| BMP7 | -1.76 | under 3300 nuclei; migration not judged | 0.46 | 3276 | inactive |
| TTLL6 | -0.46 | migration z between -2 and 2; enough cells | 0.76 | 5422 | inactive |
| NPR2 | -0.54 | migration z between -2 and 2; enough cells | 0.7 | 6470 | inactive |
| KRT33A | -0.04 | migration z between -2 and 2; enough cells | 0.88 | 3955 | inactive |
| CIAPIN1 | 0.28 | migration z between -2 and 2; enough cells | 0.96 | 6002 | inactive |
| ADAMTS19 | -2.02 | migration z below -2; enough cells | 0.41 | 5106 | active |
| EML4 | -0.18 | migration z between -2 and 2; enough cells | 0.84 | 6018 | inactive |
| ZNF136 | 0.29 | migration z between -2 and 2; enough cells | 0.86 | 5447 | inactive |
| MADD | 0.68 | migration z between -2 and 2; enough cells | 0.94 | 5786 | inactive |
| LMF2 | 0.77 | migration z between -2 and 2; enough cells | 1.08 | 5368 | inactive |
| SERPING1 | 0.42 | migration z between -2 and 2; enough cells | 0.88 | 4894 | inactive |
| KLHL4 | 0.38 | migration z between -2 and 2; enough cells | 0.99 | 4970 | inactive |
| IL24 | 1.88 | migration z between -2 and 2; enough cells | 1.38 | 6640 | inactive |
| PRSS36 | -0.68 | migration z between -2 and 2; enough cells | 0.68 | 6089 | inactive |
| NDUFC1 | -1.05 | migration z between -2 and 2; enough cells | 0.61 | 5554 | inactive |
| RPL23AP82 | -0.4 | migration z between -2 and 2; enough cells | 0.78 | 5836 | inactive |
| OR4D1 | -0.86 | migration z between -2 and 2; enough cells | 0.66 | 4203 | inactive |
| COL8A1 | 1.68 | migration z between -2 and 2; enough cells | 1.32 | 5900 | inactive |
| XCR1 | -0.2 | migration z between -2 and 2; enough cells | 0.76 | 7126 | inactive |
| IFRD1 | -0.68 | migration z between -2 and 2; enough cells | 0.71 | 5556 | inactive |
| BAG4 | 1.38 | migration z between -2 and 2; enough cells | 1.07 | 5604 | inactive |
| MTFR2 | -0.53 | under 3300 nuclei; migration not judged | 0.74 | 3299 | inactive |
| CC2D2B | 0.01 | migration z between -2 and 2; enough cells | 0.89 | 5848 | inactive |
| MDM4 | 0.86 | migration z between -2 and 2; enough cells | 0.97 | 6728 | inactive |
| HMGN2 | -1.62 | under 3300 nuclei; migration not judged | 0.46 | 2184 | inactive |
| ZDHHC23 | 0.58 | migration z between -2 and 2; enough cells | 1.04 | 5052 | inactive |
| CFAP65 | 0.42 | migration z between -2 and 2; enough cells | 1 | 7370 | inactive |
| GLB1L2 | 0.32 | migration z between -2 and 2; enough cells | 0.97 | 4630 | inactive |
| ACVR1B | -5.63 | under 3300 nuclei; migration not judged | -0.28 | 1722 | inactive |
| NMUR2 | -0.1 | migration z between -2 and 2; enough cells | 0.78 | 5064 | inactive |
| IL33 | 0.16 | migration z between -2 and 2; enough cells | 0.92 | 5720 | inactive |
| SS18L1 | -0.6 | migration z between -2 and 2; enough cells | 0.73 | 5880 | inactive |
